Results are given in words; binding and its absence hold for the method and conditions named. Binding seen in cells or lysates may run through a third protein. Some results given as binding are weak or reduced against the parent protein; the word gives no strength.
What was measured:
[1] = biological target: endogenous TLR4 of mouse macrophages (BMDMs) and mouse colon (mouse) (UniProt Q9QUK6); test: co-IP (anti-His) from BMDMs incubated with rNAMPT, anti-TLR4 blot
[2] = biological target: T1, endogenous CYBB of mouse macrophages (BMDMs) and mouse colon (mouse) (UniProt Q61093); test: co-IP (anti-His) from BMDMs incubated with rNAMPT, anti-CYBB blot
T1 sequence (looked up): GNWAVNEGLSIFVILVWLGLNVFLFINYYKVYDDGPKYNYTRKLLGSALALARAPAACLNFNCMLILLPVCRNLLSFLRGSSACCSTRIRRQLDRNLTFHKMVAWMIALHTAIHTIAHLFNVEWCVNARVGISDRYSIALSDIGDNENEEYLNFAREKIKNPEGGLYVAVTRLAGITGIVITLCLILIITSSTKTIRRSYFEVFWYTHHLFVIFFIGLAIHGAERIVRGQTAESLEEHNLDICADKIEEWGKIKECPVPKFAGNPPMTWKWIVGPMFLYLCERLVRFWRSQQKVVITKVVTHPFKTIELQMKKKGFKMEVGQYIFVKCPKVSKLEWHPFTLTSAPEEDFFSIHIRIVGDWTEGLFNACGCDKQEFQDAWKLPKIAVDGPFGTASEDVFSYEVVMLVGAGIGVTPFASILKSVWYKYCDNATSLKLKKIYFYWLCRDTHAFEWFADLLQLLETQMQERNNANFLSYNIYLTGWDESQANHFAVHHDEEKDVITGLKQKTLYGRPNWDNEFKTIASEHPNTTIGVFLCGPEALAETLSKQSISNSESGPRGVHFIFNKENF

By UniProt entry, the sequences of proteins in these tests, tags left out. Where a name states a change or a piece, a line headed by the entry shows the natural chain unless it says otherwise. Residues count along the entry.
UniProt Q9QUK6, residues 26-835: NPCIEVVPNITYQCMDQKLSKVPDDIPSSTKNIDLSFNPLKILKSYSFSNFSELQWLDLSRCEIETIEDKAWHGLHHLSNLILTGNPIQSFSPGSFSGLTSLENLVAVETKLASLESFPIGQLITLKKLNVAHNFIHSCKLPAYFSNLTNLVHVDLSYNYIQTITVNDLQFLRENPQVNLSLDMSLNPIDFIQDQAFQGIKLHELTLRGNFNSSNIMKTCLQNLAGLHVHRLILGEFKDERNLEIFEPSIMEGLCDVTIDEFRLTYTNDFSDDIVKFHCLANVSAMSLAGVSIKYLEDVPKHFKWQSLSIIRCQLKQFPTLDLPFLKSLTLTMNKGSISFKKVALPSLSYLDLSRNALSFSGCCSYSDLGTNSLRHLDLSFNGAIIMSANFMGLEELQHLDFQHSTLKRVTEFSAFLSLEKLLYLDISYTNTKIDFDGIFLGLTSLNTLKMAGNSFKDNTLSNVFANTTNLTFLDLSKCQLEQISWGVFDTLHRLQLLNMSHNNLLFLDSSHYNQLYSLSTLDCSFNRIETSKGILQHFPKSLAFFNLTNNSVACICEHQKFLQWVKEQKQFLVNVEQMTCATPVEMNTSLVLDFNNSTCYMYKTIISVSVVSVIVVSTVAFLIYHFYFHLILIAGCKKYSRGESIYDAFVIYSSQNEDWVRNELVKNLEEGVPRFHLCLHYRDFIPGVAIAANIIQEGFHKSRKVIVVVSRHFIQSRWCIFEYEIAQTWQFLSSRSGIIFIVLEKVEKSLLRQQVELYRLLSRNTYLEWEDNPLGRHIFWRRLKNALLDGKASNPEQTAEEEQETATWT
UniProt P43490: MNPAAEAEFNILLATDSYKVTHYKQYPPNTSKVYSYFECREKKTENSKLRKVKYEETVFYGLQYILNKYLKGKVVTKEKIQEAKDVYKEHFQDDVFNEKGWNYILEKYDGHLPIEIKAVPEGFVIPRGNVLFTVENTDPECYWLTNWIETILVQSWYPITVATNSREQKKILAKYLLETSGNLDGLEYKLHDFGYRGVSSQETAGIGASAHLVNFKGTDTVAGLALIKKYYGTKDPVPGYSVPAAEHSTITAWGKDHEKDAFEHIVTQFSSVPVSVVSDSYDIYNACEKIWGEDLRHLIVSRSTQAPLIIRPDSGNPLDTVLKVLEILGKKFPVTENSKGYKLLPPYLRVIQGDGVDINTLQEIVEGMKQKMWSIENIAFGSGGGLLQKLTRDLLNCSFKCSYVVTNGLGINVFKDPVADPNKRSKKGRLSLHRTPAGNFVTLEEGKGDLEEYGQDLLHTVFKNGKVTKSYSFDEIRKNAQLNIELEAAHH

binding [1]: binds
binding [2]: binds
Substance: recombinant NAMPT protein (rNAMPT) (from UniProt P43490 1-491) (enzyme)

Reference: patent US20240299505A1, “COMPOSITION FOR IMPROVING, PREVENTING OR TREATING INFLAMMATORY BOWEL DISEASE COMPRISING NAMPT-DERIVED PEPTIDE AS ACTIVE INGREDIENT” (Industry-University Cooperation Foundation Hanyang …, priority 2023, published 2024)
